Screening data, single-dose tests

Source: ChEMBL document CHEMBL3988442, “University of Dundee, Small-Polar-MMV Screening Library” (2021).

Each number is a percent effect as filed. The record does not define 0% and 100%; most values in the screen are far below 50% and negative numbers occur (in some assays of this library far below -100). Compounds were drawn at random from those tested, without regard to their results.

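Whole-parasite assay of Trypanosoma brucei over 72 hours; the read-out is not stated. Compounds at 30 µM. Direction is inferred from retests: higher values go with stronger inhibition. Values scatter widely below zero; nearly all retest evidence comes from the higher of the two concentrations used. Of about 64,000 compounds tested this way, about 940 (1.5%) reached 50% or more in at least one test.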

compound: Cc1noc(C2CCN(c3oc(C)nc3C#N)CC2)n1
percent effect: -12.84

compound: Cc1cc(N(Cc2ccccc2F)C2CC2)n2nc(C(F)(F)F)nc2n1
percent effect: -22.68

compound: Cc1cc(C(=O)N(C)S(C)(=O)=O)ccc1F
percent effect: -17.68

compound: COc1ccc(CN(C)C(=O)CSc2nnc(N)s2)c(OC)c1OC
percent effect: -38.81

compound: Cc1csc(CNC(=O)N(C)Cc2ccc3c(c2)OCO3)n1
percent effect: 17.77

compound: Clc1cccc(N2CCC(NCc3cc[nH]n3)C2)c1 (stereo not shown)
percent effect: 15.76

compound: CN(C(=O)CCN1CCCC1=O)c1cc(C#N)c2ccccc2n1
percent effect: 2.498

compound: CC(C)NC(=O)NCc1cc(-c2ccco2)n(CC(F)(F)F)n1
percent effect: -2.815

compound: O=C(O)c1ccccc1-c1cnc(Cn2c(=O)cc[nH]c2=O)s1
percent effect: -16.86

compound: CS(=O)(=O)NCCCSCc1cccc2cccnc12
percent effect: -11.17

compound: Cc1cc(N2CCC(c3nccn3Cc3cscn3)CC2)ccn1
percent effect: -6.467

compound: COc1ccc(Cl)cc1CS(=O)(=O)Cc1cc(C)on1
percent effect: -15.89

compound: COCCO[C@H]1CCN(C(=O)c2ccoc2C)[C@H]1Cc1cnn(C)c1
percent effect: -45.09

compound: Cc1ccc(C)c(CS(=O)(=O)CC(=O)NC(C)c2ccc(F)cc2F)c1 (stereo not shown)
percent effect: 56.23

compound: CCNC(=O)C(C)NC(=O)c1cnc(-c2ccc(C)cc2C)s1 (stereo not shown)
percent effect: 6.487

compound: CN(C)C(=O)CN1CCN(c2ccnc3c(F)ccc(F)c23)CC1
percent effect: -2.272

compound: c1cc(-c2ccc3c(c2)C2(CCNCC2)CC3)ccn1
percent effect: 20.69

compound: CCNC(=O)[C@@H]1C[C@H](N)CN1C1CCN(c2ccccc2OC)CC1
percent effect: 99.36

compound: CCc1ccccc1OCCN(C)C(=O)CCN1CCCO1
percent effect: -59.54

compound: O=C(O)C(F)(F)F.[H][C@@]12CCN(S(=O)(=O)C3CC3)[C@@]1([H])CCN2Cc1ccc(C)cc1
percent effect: -38.79

compound: Cc1ccccc1CN(Cc1ccccn1)C(=O)CN(C)C(C)C
percent effect: -1.356

compound: COc1ccc(-c2nnsc2C(=O)N2CCOCC2)cc1
percent effect: -7.902

compound: CC(C)N1CCc2[nH]nc(C(=O)N3CCOCC3)c2C1.O=C(O)C(F)(F)F.O=C(O)C(F)(F)F
percent effect: -23.33

compound: COc1ccc(-c2ccnc(C3CCNCC3)c2)cc1.Cl
percent effect: 18.15

compound: O=C(O)C(F)(F)F.O=C(O)C(F)(F)F.O=C(c1ccncc1)N1CC2(CCNCC2)c2cc(Cl)ccc21
percent effect: -51.23

compound: Cc1sc(Br)cc1S(=O)(=O)NCCN.Cl
percent effect: 0.3448

compound: CCOCC(=O)NCCc1ccc(I)s1
percent effect: -25.27

compound: O=C1CN(C(=O)c2cc(Cl)ccc2F)c2ccccc2N1
percent effect: -34.43

compound: [H][C@@]12C[C@H](NC(=O)c3cccc4[nH]c(C)nc34)CN1CCN(C)C2
percent effect: -9.851

compound: Cc1nc(CN2CCCC(N(C)Cc3nccn3C)C2)no1 (stereo not shown)
percent effect: -2.594

compound: CC(C)Nc1ncnc2c1CCN(c1cc(C(F)(F)F)ncn1)CC2
percent effect: 1.707

compound: COc1ccc(-n2ccc(C(=O)NCCn3ccnc3)n2)cc1
percent effect: 15.1

compound: Cc1noc(C)c1C1CCCN1C(=O)c1cn2ccsc2n1 (stereo not shown)
percent effect: -12.57

compound: COc1ccc(F)c(F)c1C(=O)N1C[C@@H](CN(C)CCO)[C@@H](CO)C1
percent effect: -40.2

compound: CC(c1nc(C2CC2)no1)N1CCN(c2ccc(C#N)cn2)CC1 (stereo not shown)
percent effect: -10.34

compound: CCN(CC1CCOC1)C(=O)c1ccc(-c2ccsc2)nc1C (stereo not shown)
percent effect: 0.04555

compound: Cc1cc(CNC(=O)Nc2ccc(C(=O)NC3CC3)cc2)no1
percent effect: -25.36

compound: CC(C)c1nc(C2CCCN2CCc2ccccn2)no1 (stereo not shown)
percent effect: -52.02

compound: Cc1cccc(-c2noc(CN3CCCCC3Cn3cncn3)n2)c1 (stereo not shown)
percent effect: 7.226

compound: c1ccc(-c2nc3c(c(NCCn4ccnn4)n2)CCNCC3)nc1
percent effect: -11.77

compound: O=C(O)Cn1ccc(=O)c2ccccc21
percent effect: -3.622

compound: CN(Cc1ccc(Cl)c(Cl)c1)C(=O)CNC(N)=O
percent effect: 18.04

compound: COC(=O)c1ccc(C(=O)N2CCCC(Nc3ccc(F)cc3)C2)cc1 (stereo not shown)
percent effect: -14.97

compound: O=C(O)C(F)(F)F.O=C(c1cc[nH]n1)N1CCC(F)(F)C2(CCN(c3ccccn3)C2)C1 (stereo not shown)
percent effect: -91.37

compound: Cc1nc(NC2CCCCC2)cc(C2CCCNC2)n1.Cl (stereo not shown)
percent effect: 43.9

compound: CC(C)C1CN(Cc2nccn2C)CCC(=O)N1CC1CC1 (stereo not shown)
percent effect: 0.4554

compound: Cc1nc(COC(=O)c2cccc3c2OCCO3)no1
percent effect: 16.78

compound: Cc1nc(C)c(CC(=O)N2C[C@@H](C(=O)O)[C@H](c3ccncc3)C2)s1
percent effect: -100.1

compound: [H][C@]12CN(C(=O)NC(C)C)CCN1C(=O)N(Cc1ccc(F)cc1)C2
percent effect: -42.19

compound: O=C(O)C(F)(F)F.O=C(c1ccoc1)N1CCOCC2(CCN(C3CCOCC3)C2)C1 (stereo not shown)
percent effect: -12.51

compound: CC(Sc1nnc(C2CC2)n1CC(N)=O)c1ccc(F)cc1F (stereo not shown)
percent effect: -26.79

compound: CCn1cc(S(=O)(=O)N2CCN(C(=O)c3cc(Br)cs3)CC2)c(C)n1
percent effect: -19.52

compound: CC(=O)Nc1ccc(S(=O)(=O)Nc2c(F)cccc2F)cc1
percent effect: -19.1

compound: CC(C)c1ncc(CN2CCOC(C(=O)Nc3ccccc3)C2)cn1 (stereo not shown)
percent effect: -7.213

compound: CC[C@@]1(O)CCN(CCCOc2ccc(C(N)=O)cc2)C[C@H]1O
percent effect: -24.58

compound: COCCN1CCC2(CC1)CN(Cc1cccc(C)n1)C(=O)CO2
percent effect: -31.43

Some entries from above, unchanged:

compound	percent effect
c1ccc(-c2nc3c(c(NCCn4ccnn4)n2)CCNCC3)nc1	-11.77
CN(C)C(=O)CN1CCN(c2ccnc3c(F)ccc(F)c23)CC1	-2.272
c1cc(-c2ccc3c(c2)C2(CCNCC2)CC3)ccn1	20.69
CC(C)N1CCc2[nH]nc(C(=O)N3CCOCC3)c2C1.O=C(O)C(F)(F)F.O=C(O)C(F)(F)F	-23.33
O=C1CN(C(=O)c2cc(Cl)ccc2F)c2ccccc2N1	-34.43
COCCO[C@H]1CCN(C(=O)c2ccoc2C)[C@H]1Cc1cnn(C)c1	-45.09
CN(C(=O)CCN1CCCC1=O)c1cc(C#N)c2ccccc2n1	2.498